This passage reports binding results from US20190270997A1.

By UniProt entry, the sequences of proteins in these tests, tags left out. Where a name states a change or a piece, a line headed by the entry shows the natural chain unless it says otherwise. Chains listed by the source or under a name are the forms on record and can include a tag or linker. Residues count along the entry.
UniProt O14686: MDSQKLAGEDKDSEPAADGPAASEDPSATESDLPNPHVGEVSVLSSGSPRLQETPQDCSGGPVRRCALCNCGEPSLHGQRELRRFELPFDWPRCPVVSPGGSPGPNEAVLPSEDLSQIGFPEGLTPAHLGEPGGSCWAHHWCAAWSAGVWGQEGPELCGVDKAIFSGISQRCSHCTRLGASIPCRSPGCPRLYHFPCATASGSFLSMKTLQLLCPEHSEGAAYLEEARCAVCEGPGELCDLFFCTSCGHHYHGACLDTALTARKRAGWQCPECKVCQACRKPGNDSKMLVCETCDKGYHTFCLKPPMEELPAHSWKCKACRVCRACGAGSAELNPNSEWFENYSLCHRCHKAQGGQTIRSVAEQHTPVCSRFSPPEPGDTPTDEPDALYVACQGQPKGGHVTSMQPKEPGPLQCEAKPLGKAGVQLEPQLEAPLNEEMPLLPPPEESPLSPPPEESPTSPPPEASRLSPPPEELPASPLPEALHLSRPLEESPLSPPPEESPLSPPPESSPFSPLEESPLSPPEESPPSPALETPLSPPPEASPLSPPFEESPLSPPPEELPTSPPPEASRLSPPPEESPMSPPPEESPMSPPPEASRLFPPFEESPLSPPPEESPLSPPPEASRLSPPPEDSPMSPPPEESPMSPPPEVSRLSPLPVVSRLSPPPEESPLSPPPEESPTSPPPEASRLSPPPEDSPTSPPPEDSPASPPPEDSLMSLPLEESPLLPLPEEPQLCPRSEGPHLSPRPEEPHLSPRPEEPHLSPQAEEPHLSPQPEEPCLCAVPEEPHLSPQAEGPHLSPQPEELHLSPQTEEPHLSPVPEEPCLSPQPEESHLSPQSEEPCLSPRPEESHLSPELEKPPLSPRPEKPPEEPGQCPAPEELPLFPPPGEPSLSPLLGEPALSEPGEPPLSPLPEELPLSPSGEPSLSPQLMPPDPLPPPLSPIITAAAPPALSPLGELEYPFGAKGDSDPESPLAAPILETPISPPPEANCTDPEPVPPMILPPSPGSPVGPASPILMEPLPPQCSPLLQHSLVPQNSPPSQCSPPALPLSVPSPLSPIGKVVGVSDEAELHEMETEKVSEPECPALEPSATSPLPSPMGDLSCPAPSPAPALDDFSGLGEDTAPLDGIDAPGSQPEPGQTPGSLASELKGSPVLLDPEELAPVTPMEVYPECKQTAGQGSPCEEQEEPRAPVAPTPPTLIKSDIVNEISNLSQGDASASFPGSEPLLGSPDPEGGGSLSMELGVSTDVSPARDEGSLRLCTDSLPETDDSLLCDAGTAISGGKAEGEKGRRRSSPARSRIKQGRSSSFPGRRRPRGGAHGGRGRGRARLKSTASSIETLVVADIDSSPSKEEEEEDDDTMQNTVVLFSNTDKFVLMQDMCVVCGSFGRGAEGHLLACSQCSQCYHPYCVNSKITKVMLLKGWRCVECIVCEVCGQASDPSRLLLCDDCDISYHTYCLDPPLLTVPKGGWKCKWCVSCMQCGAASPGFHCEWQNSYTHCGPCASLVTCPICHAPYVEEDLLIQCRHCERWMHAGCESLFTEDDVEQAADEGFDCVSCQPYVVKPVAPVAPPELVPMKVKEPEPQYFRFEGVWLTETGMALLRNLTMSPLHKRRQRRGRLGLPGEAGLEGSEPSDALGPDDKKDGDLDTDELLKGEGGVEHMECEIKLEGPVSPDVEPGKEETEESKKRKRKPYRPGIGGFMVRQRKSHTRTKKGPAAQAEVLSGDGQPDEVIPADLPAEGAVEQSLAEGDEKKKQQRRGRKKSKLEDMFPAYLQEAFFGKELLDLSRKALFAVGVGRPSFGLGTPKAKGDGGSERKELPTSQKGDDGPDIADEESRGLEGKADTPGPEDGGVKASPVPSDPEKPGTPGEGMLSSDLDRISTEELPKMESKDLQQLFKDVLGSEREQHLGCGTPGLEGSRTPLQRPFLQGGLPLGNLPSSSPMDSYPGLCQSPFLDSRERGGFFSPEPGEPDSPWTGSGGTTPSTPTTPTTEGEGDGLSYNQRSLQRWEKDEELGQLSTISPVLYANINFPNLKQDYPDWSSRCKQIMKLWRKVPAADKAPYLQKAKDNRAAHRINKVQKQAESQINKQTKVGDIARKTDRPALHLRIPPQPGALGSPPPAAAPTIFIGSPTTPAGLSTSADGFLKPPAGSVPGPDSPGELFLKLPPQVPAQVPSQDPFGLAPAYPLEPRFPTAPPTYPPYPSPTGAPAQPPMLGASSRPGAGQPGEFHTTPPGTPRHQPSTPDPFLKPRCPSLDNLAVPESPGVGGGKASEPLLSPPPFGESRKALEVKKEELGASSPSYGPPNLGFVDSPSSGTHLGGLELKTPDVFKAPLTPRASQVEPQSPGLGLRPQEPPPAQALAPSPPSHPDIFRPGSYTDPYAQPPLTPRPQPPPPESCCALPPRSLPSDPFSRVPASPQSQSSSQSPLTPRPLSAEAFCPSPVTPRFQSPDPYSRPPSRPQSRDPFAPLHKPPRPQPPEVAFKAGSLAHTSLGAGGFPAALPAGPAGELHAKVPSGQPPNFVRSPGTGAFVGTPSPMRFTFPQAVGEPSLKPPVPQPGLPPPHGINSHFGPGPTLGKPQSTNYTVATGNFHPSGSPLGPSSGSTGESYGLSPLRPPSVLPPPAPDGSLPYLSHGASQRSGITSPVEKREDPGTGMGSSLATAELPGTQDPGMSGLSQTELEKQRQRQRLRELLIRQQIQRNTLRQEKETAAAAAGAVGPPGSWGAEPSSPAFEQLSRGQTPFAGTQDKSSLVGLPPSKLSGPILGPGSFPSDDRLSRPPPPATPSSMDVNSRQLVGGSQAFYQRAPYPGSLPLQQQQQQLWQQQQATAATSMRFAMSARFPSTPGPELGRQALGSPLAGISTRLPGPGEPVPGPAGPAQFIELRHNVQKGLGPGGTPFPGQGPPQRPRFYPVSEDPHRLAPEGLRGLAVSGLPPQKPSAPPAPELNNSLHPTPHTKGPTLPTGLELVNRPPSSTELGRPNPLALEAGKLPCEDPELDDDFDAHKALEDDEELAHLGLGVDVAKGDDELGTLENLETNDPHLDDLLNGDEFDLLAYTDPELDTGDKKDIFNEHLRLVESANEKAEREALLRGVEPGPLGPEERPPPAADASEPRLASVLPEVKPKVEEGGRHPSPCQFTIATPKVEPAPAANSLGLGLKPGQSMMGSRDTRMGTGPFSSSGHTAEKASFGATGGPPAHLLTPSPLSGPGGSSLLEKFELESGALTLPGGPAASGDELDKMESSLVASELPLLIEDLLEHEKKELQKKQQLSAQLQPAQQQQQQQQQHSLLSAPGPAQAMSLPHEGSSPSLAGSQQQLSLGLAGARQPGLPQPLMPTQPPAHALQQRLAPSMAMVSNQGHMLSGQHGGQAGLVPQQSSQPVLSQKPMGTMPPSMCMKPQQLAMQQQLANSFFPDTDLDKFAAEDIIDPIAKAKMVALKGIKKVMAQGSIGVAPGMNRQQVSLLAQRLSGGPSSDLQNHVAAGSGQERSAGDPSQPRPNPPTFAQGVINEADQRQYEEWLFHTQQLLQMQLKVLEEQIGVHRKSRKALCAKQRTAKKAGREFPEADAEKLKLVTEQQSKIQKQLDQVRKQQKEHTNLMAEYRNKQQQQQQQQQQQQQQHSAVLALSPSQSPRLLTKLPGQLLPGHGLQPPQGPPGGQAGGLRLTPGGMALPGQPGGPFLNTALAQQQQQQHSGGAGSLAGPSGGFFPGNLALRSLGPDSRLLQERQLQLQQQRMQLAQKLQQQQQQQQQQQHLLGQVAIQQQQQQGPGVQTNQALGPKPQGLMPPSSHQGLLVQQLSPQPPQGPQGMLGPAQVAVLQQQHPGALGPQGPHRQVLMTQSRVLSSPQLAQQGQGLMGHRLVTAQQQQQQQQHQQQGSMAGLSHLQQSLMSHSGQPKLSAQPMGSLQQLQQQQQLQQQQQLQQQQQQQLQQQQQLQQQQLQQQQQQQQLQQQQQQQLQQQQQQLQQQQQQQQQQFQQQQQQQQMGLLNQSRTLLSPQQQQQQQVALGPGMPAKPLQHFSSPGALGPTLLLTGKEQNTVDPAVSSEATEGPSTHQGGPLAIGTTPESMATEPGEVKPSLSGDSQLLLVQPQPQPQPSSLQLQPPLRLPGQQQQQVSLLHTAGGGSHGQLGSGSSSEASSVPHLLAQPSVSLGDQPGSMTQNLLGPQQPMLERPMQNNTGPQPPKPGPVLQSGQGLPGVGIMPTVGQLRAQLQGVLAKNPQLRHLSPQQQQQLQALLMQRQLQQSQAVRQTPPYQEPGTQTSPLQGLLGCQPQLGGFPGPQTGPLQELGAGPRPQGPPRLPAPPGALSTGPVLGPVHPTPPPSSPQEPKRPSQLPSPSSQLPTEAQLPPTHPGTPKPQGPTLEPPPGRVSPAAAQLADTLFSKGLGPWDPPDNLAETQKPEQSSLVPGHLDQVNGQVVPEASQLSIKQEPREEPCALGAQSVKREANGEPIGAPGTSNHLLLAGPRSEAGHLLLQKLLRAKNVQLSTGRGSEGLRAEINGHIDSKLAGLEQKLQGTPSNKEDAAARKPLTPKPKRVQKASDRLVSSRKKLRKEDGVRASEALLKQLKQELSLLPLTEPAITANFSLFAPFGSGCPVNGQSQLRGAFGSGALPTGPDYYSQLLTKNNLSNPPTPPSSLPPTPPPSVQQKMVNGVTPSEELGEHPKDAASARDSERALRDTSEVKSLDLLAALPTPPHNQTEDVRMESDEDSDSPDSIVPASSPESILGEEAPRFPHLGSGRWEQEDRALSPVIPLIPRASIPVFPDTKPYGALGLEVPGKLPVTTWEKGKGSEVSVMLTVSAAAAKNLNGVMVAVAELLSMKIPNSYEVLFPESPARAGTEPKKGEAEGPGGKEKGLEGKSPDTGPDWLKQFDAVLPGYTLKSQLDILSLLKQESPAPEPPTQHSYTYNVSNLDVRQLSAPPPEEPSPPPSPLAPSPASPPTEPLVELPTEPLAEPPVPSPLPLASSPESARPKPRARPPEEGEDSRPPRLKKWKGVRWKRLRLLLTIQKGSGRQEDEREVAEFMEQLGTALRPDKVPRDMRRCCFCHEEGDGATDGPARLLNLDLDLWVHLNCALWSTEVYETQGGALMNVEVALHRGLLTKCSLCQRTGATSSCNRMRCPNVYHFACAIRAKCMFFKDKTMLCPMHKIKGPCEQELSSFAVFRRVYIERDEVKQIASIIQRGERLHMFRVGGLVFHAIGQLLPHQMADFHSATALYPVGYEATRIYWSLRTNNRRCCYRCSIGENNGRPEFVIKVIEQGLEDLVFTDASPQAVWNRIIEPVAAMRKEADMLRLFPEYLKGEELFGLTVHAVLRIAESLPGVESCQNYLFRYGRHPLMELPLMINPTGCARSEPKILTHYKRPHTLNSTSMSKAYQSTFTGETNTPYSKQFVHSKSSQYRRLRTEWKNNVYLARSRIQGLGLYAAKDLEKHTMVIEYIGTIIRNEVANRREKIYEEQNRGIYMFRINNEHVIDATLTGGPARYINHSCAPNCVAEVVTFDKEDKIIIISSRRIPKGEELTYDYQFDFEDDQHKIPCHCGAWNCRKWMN
V5-tagged KMT2D fragment (1222-1819): residues 1222-1819 of O14686
UniProt P31749: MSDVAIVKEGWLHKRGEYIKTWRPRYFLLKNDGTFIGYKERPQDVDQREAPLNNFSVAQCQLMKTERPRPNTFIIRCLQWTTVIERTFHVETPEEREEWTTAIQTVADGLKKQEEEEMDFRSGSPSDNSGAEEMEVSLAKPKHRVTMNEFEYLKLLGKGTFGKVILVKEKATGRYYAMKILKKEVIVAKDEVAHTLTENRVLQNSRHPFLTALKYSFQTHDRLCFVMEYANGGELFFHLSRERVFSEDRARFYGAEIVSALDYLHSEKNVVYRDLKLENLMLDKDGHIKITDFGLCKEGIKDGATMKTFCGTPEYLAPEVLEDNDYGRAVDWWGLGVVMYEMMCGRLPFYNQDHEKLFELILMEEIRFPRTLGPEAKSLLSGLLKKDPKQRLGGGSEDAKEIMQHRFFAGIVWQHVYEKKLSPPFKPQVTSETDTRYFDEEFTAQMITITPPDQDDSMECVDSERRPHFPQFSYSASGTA

No constants are given. Whether binding was seen depends on the method and setting. Binding seen in cells or lysates may run through a third protein. Some results given as binding are weak or reduced against the parent protein; the word gives no strength.

For test [1], the target named is HA-tagged KMT2D (full length, wild type) (UniProt O14686). The test is described as follows: co-immunoprecipitation (title of the FIG. 4 legend).
Test [2] has the same target. The test is described as follows: HA co-immunoprecipitation from transfected 293T cells, blotted with HA and V5 antibodies.
Test [3] has as its target V5-tagged KMT2D fragment (1222-1819) (UniProt O14686). The test is described as follows: co-immunoprecipitation in 293T cells of YFP-AKT1 with V5-tagged KMT2D fragments.

As to “V5-tagged AKT1 (from UniProt P31749 1-480) (enzyme)”, the binding result in test [1] and in test [2] was “binds” throughout.
For the substance “YFP-AKT1 (from UniProt P31749 1-480) (enzyme)”, the binding entry in test [3] is “binds”.
